Source: PubChem BioAssay AID1671190 (National Center for Advancing Translational Sciences (NCATS), 2021)
About 6,100 (1.1%) of roughly 580,000 compounds were called active. Inconclusive results, whose numbers are uncertain, are shown with a selection of clear calls. Calls follow the shape of the dose curve; as a rule, active = well fitted inhibition curve with a large enough effect; inconclusive = small, poorly fitted or top-dose-only effect, or another doubt; inactive = no such curve, though single readings can be large or run the other way. Potencies beside an inconclusive call are fits to weak or partial responses and may not hold up.

Sequences of proteins named here, by UniProt entry; tags and fusion partners are left off. A change or cut given only in a name is not applied to a line headed by its entry.
UniProt P18054: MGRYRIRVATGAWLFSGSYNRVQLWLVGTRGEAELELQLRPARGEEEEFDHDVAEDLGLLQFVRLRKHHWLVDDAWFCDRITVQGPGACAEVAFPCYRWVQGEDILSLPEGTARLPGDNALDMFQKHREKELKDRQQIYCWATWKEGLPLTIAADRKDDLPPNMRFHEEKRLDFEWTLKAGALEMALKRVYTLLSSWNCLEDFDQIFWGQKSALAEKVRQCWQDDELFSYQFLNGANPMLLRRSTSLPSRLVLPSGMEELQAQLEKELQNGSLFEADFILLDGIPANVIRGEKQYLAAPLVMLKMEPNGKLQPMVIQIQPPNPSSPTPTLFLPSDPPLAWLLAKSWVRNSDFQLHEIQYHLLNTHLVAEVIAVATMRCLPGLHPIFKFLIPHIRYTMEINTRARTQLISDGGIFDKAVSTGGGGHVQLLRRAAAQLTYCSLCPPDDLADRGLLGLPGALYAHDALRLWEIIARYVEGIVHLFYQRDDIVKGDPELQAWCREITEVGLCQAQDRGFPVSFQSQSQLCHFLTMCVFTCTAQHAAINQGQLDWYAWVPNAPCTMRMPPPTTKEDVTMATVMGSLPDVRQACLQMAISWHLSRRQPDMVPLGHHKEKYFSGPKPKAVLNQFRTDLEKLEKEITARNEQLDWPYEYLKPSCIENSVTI

These molecules were tested against Polyunsaturated fatty acid lipoxygenase ALOX12 (Homo sapiens) (UniProt P18054) (assay: Primary qHTS assay for inhibitors of human arachidonate 12S-lipoxygenase (ALOX12): Round 2). Conditions: purified 12hLO, xylenol orange hydroperoxide absorbance; series mostly up to 108 µM.
Outline: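 Hydroperoxide product was detected by ferrous iron/xylenol orange as the 573 to 405 nm absorbance ratio. Arachidonic acid at 40 uM (final) was turned over for 30 min at room temperature by 150 nM human 12hLO, pH 7.0 Hepes buffer, after 15 min compound preincubation.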
Potency is read from the fitted curve at half-maximal effect.

| SMILES | Potency |
| --- | --- |
| Cc1cc(SCC(=O)N2c3ccccc3NC(=O)CC2C)nc2ccccc12 (centres undefined) | inactive |
| COc1ccc2cc(C3(C)NC(=O)N(CC(=O)NCC(F)(F)F)C3=O)ccc2c1 (centres undefined) | inconclusive: 100 µM [inhibitor, partial curve, poor fit] |
| CCNC(=O)NC(=O)C(Cl)c1ccccc1 (centres undefined) | inconclusive: 20 µM [inhibitor, partial curve, poor fit] |
| Cc1ccc(OCC(=O)NC(=S)Nc2ccc(Br)c(C)n2)cc1 | inactive |
| COc1ccc(-c2ocnc2C(=O)Nc2cc(OC)cc(OC)c2)cc1 | inactive |
| O=c1nc(SCc2ccccc2Cl)nc(-c2ccc(Cl)cc2)[nH]1 | inconclusive: 126 µM [inhibitor, single point] |
| O=C(CSc1nc(-c2ccccc2)cc(=O)[nH]1)Nc1oncc1-c1ccc(F)cc1 | inactive |
| Cc1ccc(C2C(C#N)=C(N)OC3=C2C(=O)CC(c2ccccc2Cl)C3)cc1 (centres undefined) | inconclusive: 50.1 µM [inhibitor, partial curve, poor fit] |
| CS(=O)(=O)Nc1cccc(-c2cncnc2Nc2ccc(F)cc2)c1 | inconclusive: 22.4 µM [inhibitor, partial curve, poor fit] |
| FC(F)(F)c1ccccc1-c1cncnc1-n1ccnc1 | inactive |
| Cc1cc(Br)cn2c(Cc3cccc(F)c3)c(-c3ccco3)nc12 | inconclusive: 35.5 µM [inhibitor, single point] |
| Cc1oc(-c2ccc(C(=O)NCc3cccnc3)cc2)nc1CS(=O)c1ccccc1 (centres undefined) | inconclusive: 44.7 µM [inhibitor, partial curve, poor fit] |
| CCOC(=O)C1CCN(CCC(=O)Nc2cc(C)ccc2OC)CC1 | inactive |
| COc1cccc(NC(=O)CSc2cc(=O)n(C)c3ccc(Cl)cc23)c1 | inconclusive: 63.1 µM [inhibitor, partial curve, poor fit] |
| Cc1cc(=O)[nH]c2nnc(SCc3ccc(Cl)c(Cl)c3)n12 | inconclusive: 158 µM [inhibitor, partial curve, poor fit] |
| COC(=O)c1ccc(C2C(C(C)=O)=C(O)C(=O)N2CCO)cc1 (centres undefined) | inconclusive: 4.47 µM [inhibitor, full curve, poor fit] |
| S=c1[nH]nc(-c2ccccc2)n1/N=C/c1ccc(Cl)cc1 | active: 22.4 µM |
| COc1ccc(OC)c(/C=C/C(=O)c2ccc(Cl)cc2)c1 | inactive |
| CCCCOc1cccc(C(=O)Nc2ccc(S(=O)(=O)Nc3nnc(CC)s3)cc2)c1 | inconclusive: 50.1 µM [inhibitor, single point] |
| CC(=O)c1sc2nc(-c3ccco3)ccc2c1N | inconclusive: 31.6 µM [inhibitor, partial curve, poor fit] |
| CC(=O)N[C@H]1CN(C(=O)c2ccccc2C(F)(F)F)C[C@@H]1C1CC1 | inactive |
| N#Cc1cc2ccccc2nc1N1CCCCC1 | inconclusive: 7.08 µM [inhibitor, full curve, poor fit] |

| SMILES | Potency |
| --- | --- |
| Cc1cccc(C(=O)N2CCc3cc(CNC(=O)c4ccnn4C)ccc32)c1 | inconclusive: 112 µM [inhibitor, partial curve, poor fit] |
| CC(=O)c1cc2c(cc1O)CCCC2 | inactive |
| CCOc1ccccc1NC(=O)CN1C(=O)COc2ccc(S(=O)(=O)N3CCCCCC3)cc21 | inactive |
| CC(C)N(C)S(=O)(=O)c1ccc2c(c1)CCN(C(=O)c1cscn1)C2 | inconclusive: 31.6 µM [inhibitor, full curve, poor fit] |
| Cc1nc(N2CCN(C(=O)Cc3cccs3)CC2)cc(C(F)(F)F)n1 | inconclusive: 35.5 µM [inhibitor, full curve] |
| CNC(=O)C1(N2CCC[C@H]2C(=O)NC2CCOCC2)CCOCC1 | inconclusive: 12.6 µM [inhibitor, full curve] |
| O=c1c(Cc2ccc(Cl)cc2)c(O)ccn1Cc1cccs1 | inconclusive: 126 µM [inhibitor, single point] |
| Cc1noc(C)c1C(=O)N1CCC[C@@]2(CCN(c3cccc(-c4ccccc4)c3)C2)C1 | inconclusive: 31.6 µM [inhibitor, single point] |
| CCn1cnnc1CC1CCCNC1 (centres undefined) | inconclusive: 3.55 µM [inhibitor, full curve] |
| COc1ccc(C2=C(C)C(N3CCC(C(=O)Nc4ccc(C)c(Cl)c4)CC3)=NS2(=O)=O)cc1 | inconclusive: 89.1 µM [inhibitor, single point] |
| O=C(NCC(c1ccco1)N1CCCCC1)c1cccc(NS(=O)(=O)c2ccc(Br)cc2)c1 (centres undefined) | inconclusive: 50.1 µM [inhibitor, partial curve, poor fit] |
| CCCS(=O)(=O)c1nc(S(=O)(=O)c2ccc(C)cc2)c(NCC)s1 | inconclusive: 0.251 µM [inhibitor, full curve, poor fit] |
| COCCNC(=O)[C@@H]1C[C@@H](O)CN1C1CCN(C(=O)c2ccccc2)CC1 | inactive |
| CC1(C)Cc2c(C#N)c(NCCc3ccccc3)nc(-c3ccco3)c2CO1 | inconclusive: 79.4 µM [inhibitor, partial curve, poor fit] |
| COC(=O)c1cc(C(=O)OCC(=O)c2ccc3c(c2)NC(=O)CO3)cc([N+](=O)[O-])c1 | inactive |
| N#Cc1ccc(NC(=O)COCC(=O)NNC(=O)c2ccncc2)cc1 | inactive |
| COc1cc(CCC(=O)N2CCN(c3cccc(C)c3C)CC2)cc(OC)c1OC | inconclusive: 44.7 µM [inhibitor, partial curve, poor fit] |
| CCOC(=O)c1cccc(NC(=O)CC(c2cc(OC)c(OC)c(OC)c2)N2Cc3ccccc3C2=O)c1 (centres undefined) | inconclusive: 44.7 µM [inhibitor, partial curve, poor fit] |
| O=[N+]([O-])c1ccc(CNc2cccc(F)c2)s1 | inconclusive: 89.1 µM [inhibitor, single point] |
| CCCCCCCCCCOC(=O)NC1CCS(=O)(=O)C1 (centres undefined) | inactive |
| Cc1ccc(Cn2c(-c3cccc(Cl)c3)nc(C)c(CCO)c2=O)cc1 | inactive |
| CN1CCN(c2ccc(CNC(=O)C3(C)Cc4c(-c5ccc(C(N)=O)cc5)ccnc4O3)cc2)CC1 (centres undefined) | inconclusive: 2.24 µM [inhibitor, full curve, poor fit] |

Reformatted: results already given.
SMILES	Potency
COc1cc(CCC(=O)N2CCN(c3cccc(C)c3C)CC2)cc(OC)c1OC	inconclusive: 44.7 µM [inhibitor, partial curve, poor fit]
CCOC(=O)c1cccc(NC(=O)CC(c2cc(OC)c(OC)c(OC)c2)N2Cc3ccccc3C2=O)c1 (centres undefined)	inconclusive: 44.7 µM [inhibitor, partial curve, poor fit]
O=[N+]([O-])c1ccc(CNc2cccc(F)c2)s1	inconclusive: 89.1 µM [inhibitor, single point]
CCCCCCCCCCOC(=O)NC1CCS(=O)(=O)C1 (centres undefined)	inactive
Cc1ccc(Cn2c(-c3cccc(Cl)c3)nc(C)c(CCO)c2=O)cc1	inactive

(continued)

| SMILES | Potency |
| --- | --- |
| S=c1[nH]c2ccccc2n1Cc1ccccc1 | inconclusive: 89.1 µM [inhibitor, single point] |
| CCCCNc1cccc2c1S(=O)(=O)N[C@H](Cc1ccccc1)CO2 | inconclusive: 89.1 µM [inhibitor, partial curve, poor fit] |
| OC(c1ccco1)c1nc(-c2ccc(F)c(Cl)c2)cs1 (centres undefined) | inconclusive: 79.4 µM [inhibitor, single point] |
| CCN(CC)CCn1c(=S)[nH]c2cc(C(=O)NCc3ccc(C)cc3)ccc2c1=O | inconclusive: 0.199 µM [inhibitor, single point] |
| CC(C)c1ccc2c(c1)CCC1C(C)(CN)CCCC21C (centres undefined) | inconclusive: 70.8 µM [inhibitor, partial curve, poor fit] |
| Cc1nnc(NN)n(N)c1=O | inconclusive: 22.4 µM [inhibitor, partial curve, poor fit] |
| CCCCn1c(=O)[nH]c(=O)c2c1nc(-c1ccc(OC)c(Br)c1)n2CC(C)C | inconclusive: 126 µM [inhibitor, partial curve, poor fit] |
| CCOC(=O)C1=C(C)OC(N)=C(C#N)C1c1cc2c(cc1[N+](=O)[O-])OCO2 (centres undefined) | inconclusive: 50.1 µM [inhibitor, partial curve, poor fit] |
| CCOC(=O)C1CCN(c2c(C(=O)c3ccc(OCC)cc3)cnc3ccc(OC)cc23)CC1 | inconclusive: 63.1 µM [inhibitor, partial curve, poor fit] |
| Oc1c(C(c2ccccc2F)N2CCOCC2)sc2nc(-c3ccco3)nn12 (centres undefined) | inconclusive: 7.94 µM [inhibitor, full curve, poor fit] |
| CC1(C)OC(=O)C(C(c2ccccc2)C(C#N)C(N)=O)=C(O)O1 (centres undefined) | inconclusive: 2.51 µM [inhibitor, full curve, poor fit] |
| COc1ccc(OCC(=O)Nc2ccc(NC(=O)c3ccccc3Cl)c(OC)c2)cc1 | inconclusive: 100 µM [inhibitor, partial curve, poor fit] |
| COc1ccc(N(Cc2cc3cc(OC)ccc3[nH]c2=O)C(=O)c2cccnc2)cc1 | inconclusive: 89.1 µM [inhibitor, partial curve, poor fit] |
| COc1ccc(C(=O)N(Cc2nc(-c3ccc(C)cc3)no2)C(C)C)cc1OC | inconclusive: 89.1 µM [inhibitor, partial curve, poor fit] |
| Cc1cccc(NC(=O)c2oc3c(c2C)-c2[nH]ncc2CC3)c1C | inconclusive: 44.7 µM [inhibitor, partial curve] |
| OC(c1nc2ccccc2s1)(c1nc2ccccc2s1)C(F)(F)F | inconclusive: 22.4 µM [inhibitor, partial curve] |
| CCOC(=O)c1[nH]c2ccc(OC)cc2c1NC(=S)N1CCN(c2cccc(C)c2C)CC1 | inconclusive: 35.5 µM [inhibitor, partial curve, poor fit] |
| CCN(c1ccccc1)S(=O)(=O)c1ccc2[nH]cc(C(=O)NC3CCCCC3)c(=O)c2c1 | inconclusive: 50.1 µM [inhibitor, partial curve, poor fit] |
| N#C/C(=C\c1ccccn1)c1ccccn1 | inconclusive: 22.4 µM [inhibitor, partial curve, poor fit] |
| CCC1Oc2ccc(NC(=O)Cc3ccccc3)cc2CN(Cc2ccccc2)C1=O (centres undefined) | inactive |
